Results are given in words; binding and its absence hold for the method and conditions named. In cells and extracts the contact can be indirect. Some entries that bind do so weakly or less than the wild type.
Biological target: NiV-G-HA (Nipah virus) (UniProt Q9IH62)
Assay: co-IP

Amino acid sequences for entries named in this document (tags omitted). A change or cut given only in a name is not applied to a line headed by its entry.
UniProt Q9IH62: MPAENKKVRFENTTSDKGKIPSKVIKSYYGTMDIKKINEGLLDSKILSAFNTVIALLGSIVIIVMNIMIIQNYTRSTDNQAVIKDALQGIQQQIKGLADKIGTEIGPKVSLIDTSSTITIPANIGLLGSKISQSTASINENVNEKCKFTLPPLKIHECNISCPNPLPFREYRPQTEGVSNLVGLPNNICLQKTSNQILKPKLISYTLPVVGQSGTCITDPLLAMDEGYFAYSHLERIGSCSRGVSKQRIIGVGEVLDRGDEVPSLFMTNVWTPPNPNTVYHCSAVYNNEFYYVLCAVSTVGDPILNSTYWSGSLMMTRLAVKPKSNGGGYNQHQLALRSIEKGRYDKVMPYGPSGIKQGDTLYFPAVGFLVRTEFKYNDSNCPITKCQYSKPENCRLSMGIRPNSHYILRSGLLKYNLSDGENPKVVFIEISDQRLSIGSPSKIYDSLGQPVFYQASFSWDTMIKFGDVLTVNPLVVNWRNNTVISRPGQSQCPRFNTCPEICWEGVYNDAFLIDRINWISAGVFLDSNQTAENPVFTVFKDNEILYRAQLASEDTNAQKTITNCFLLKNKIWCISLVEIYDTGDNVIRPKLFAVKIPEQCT
UniProt Q9IH63: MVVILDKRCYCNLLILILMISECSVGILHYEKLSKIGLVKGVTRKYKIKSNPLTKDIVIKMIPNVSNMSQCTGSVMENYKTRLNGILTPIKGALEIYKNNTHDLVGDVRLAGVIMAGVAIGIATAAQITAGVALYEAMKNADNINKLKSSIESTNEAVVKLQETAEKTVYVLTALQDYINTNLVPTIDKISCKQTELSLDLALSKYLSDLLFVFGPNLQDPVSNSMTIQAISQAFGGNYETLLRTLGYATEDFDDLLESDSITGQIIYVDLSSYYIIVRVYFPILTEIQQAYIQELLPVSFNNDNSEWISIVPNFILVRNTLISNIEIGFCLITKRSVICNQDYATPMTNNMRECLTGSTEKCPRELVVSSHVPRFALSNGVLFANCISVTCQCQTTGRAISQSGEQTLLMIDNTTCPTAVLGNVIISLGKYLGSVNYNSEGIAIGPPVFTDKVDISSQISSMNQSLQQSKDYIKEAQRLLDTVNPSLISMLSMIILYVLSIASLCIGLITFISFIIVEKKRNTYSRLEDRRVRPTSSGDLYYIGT

## NiV-F-GFP, cleaved F1 (fusion-active) form (from UniProt Q9IH63)
  binding: binds
